The exact form of at least one protein or probe is not confirmed. At least one verdict rests on a figure or table, not on a statement of the authors. Tags and fusion partners may be left off the protein sequences shown.
Target: T1, rMBP-pTAC12 (ZmpTAC12) (Zea mays) (UniProt B4FZ81)
T1 sequence (looked up): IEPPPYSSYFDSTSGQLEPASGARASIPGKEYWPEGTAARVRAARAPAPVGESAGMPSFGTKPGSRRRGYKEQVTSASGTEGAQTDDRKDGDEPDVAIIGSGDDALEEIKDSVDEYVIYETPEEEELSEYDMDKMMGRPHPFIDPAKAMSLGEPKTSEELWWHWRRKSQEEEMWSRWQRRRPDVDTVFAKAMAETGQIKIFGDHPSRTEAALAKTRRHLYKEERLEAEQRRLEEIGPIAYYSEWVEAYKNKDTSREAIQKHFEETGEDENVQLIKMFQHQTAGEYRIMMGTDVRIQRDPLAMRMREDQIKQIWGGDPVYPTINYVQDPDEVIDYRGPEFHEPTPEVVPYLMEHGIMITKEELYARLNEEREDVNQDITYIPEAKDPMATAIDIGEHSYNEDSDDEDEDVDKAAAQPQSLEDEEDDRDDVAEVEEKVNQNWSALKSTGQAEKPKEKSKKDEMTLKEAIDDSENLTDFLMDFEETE
Assay: EMSA
Conditions: c. 100 pM probe, 1 ug/ul heparin (ssRNA assays), c. 100 pM radiolabeled 50mer, recombinant protein, residues 72-555, protein details: N-terminal MBP fusion

[1] = label: 5' end radiolabel (T4 PNK), single-stranded DNA
[2] = 1 ug/ul heparin, label: radiolabeled, letters put together from the description

Row | Sequence | binding result [1] | binding result [2]
1 | CAGAATAACCAATGTCCGTTAGGCACCTAATCCTTATGTCATAATAGATC [psaAB-231 ssDNA] | binds | –
2 | GGCAGAAUAACCAAUGUCCGUUAGGCACCUAAUCCUUAUGUCAUAAUAGAUC [psaAB-231 ssRNA] | – | binds
3 | GGUAAUAGAUCCGAACACUUGCCUCGGAUUGACUUCAAUAUAUAAUUGCUCC [psaAB-190 ssRNA] | – | binds
4 | TAATAGATCCGAACACTTGCCTCGGATTGACTTCAATATATAATTGCTCC [psaAB-190 ssDNA] | binds | –
